According to PubChem BioAssay AID540256 (National Center for Advancing Translational Sciences (NCATS), 2011):
Screen size: about 300,000 compounds; about 3,700 (1.2%) were called active. The inconclusive results got no clear call from the source; some entries with a clear call stand among them for comparison. Calls come from the whole dose curve; tested in HEK293 cells. Potencies beside an inconclusive call are fits to weak or partial responses and may not hold up.

Assay: qHTS for Inhibitors of binding or entry into cells for Lassa Virus; note: nearly all actives have a fitted effect of over 50% in size
Settings: Lassa virus pseudotype entry inhibition, cell reporter; series mostly up to 37.9 µM
Potency is the fitted concentration of half-maximal effect.

Compound	Potency
Cc1cccc(CSc2ccc(-c3ccco3)nn2)c1	inactive
O=C(c1cccc(C(F)(F)F)c1)N1CCC(O)(CS(=O)(=O)Cc2ccccc2Cl)CC1	inconclusive: 0.0058 µM [inhibitor, full curve, poor fit]
C=C(C)C1CCC(C)=C1COC(=O)Nc1ccccc1 (configuration not stated)	inconclusive: 20 µM [inhibitor, single point]
COC(=O)c1ccccc1NC(=O)CCCn1c(=O)c2cccn2c2cccnc21	inactive
COc1ccc(-n2c(-c3ccc(Br)cc3)c[n+]3c2CCc2ccccc2-3)cc1	inconclusive: 7.3 µM [inhibitor, partial curve]
Cc1ccc(Cl)cc1NC(=O)CN1C(=O)CCc2ccccc21	inactive
CC(C)(C)c1ccc(N/N=C(\C#N)S(=O)(=O)C(C)(C)C)cc1	inconclusive: 17.8 µM [inhibitor, single point]
CCc1ccccc1N1CSC2=C(C#N)C(c3cc(OC)c(OC)cc3OC)CC(=O)N2C1 (configuration not stated)	inactive
CCN(CC(=O)NCC(=O)Nc1ccc(Br)cc1C)Cc1ccccc1	inactive
COc1ccc(C)cc1N(C)C(=O)CCc1nc(-c2ccccc2F)no1	inconclusive: 1.12 µM [inhibitor, full curve, poor fit]
COc1ccccc1NC(=O)COc1ccccc1	inconclusive: 29.1 µM [activator, single point]
CCCCNC(=O)/C(C#N)=C/c1ccc2c(c1)OCCO2	inconclusive: 20 µM [activator, single point]
O=S(=O)(NN1CCOCC1)c1ccc(Cl)s1	inconclusive: 15.8 µM [activator, single point]
Cc1cc(NC(=O)CN2CCC(C)CC2)nc2c1c(=O)oc1ccccc12	inconclusive: 35.5 µM [inhibitor, partial curve, poor fit]
O=C(Nc1ccc(F)cc1F)c1cccn(Cc2ccccc2)c1=O	inconclusive: 6.31 µM [activator, single point]
Cc1nc2oc3ccc(Cl)cc3c(=O)c2cc1C(=O)O	inactive
CCOC(=O)C(Cc1c[nH]c2ccccc12)NC(=O)COc1ccc(CC)cc1 (configuration not stated)	inconclusive: 0.562 µM [inhibitor, full curve, poor fit]
NC(=O)c1cccc(N=Cc2cc(Cl)cc(Cl)c2O)c1	inactive
COc1ccc2cc(/C=N/NC(=O)c3ccc(CN(c4cccc(Cl)c4Cl)S(C)(=O)=O)cc3)c(Cl)nc2c1	inconclusive: 0.316 µM [inhibitor, full curve]
COc1cc(/C=N/NC(=O)C(=O)/C=C2\NC3(CCCC3)Cc3ccccc32)ccc1O	inactive
O=C1C(c2ccc(F)cc2)N(CCc2ccccc2)C(=O)CN1C1CCCCCC1 (configuration not stated)	inconclusive: 12.6 µM [activator, single point]

Compound	Potency
COc1ccc(/C=N/N(C(C)=O)c2nc(-c3ccc(C)cc3)cs2)cc1	inconclusive: 3.66 µM [inhibitor, full curve]
CN(C)CCSc1nc(-c2ccccc2)nc2c1CCCC2	inconclusive: 4.47 µM [activator, single point]
Cc1ccc(-c2nnc(N3CCN(CCO)CC3)c3ccccc23)cc1	inconclusive: 25.1 µM [inhibitor, single point]
CS(=O)(=O)N(CC(=O)N1CCN(C(c2ccccc2)c2ccccc2)CC1)C1CCCCC1	inconclusive: 25.9 µM [inhibitor, single point]
CC(=O)Nc1ccc(N(C(=O)Cn2nnc3ccccc32)C(C(=O)NCc2ccccc2)c2ccc(C)cc2)cc1 (configuration not stated)	inconclusive: 5.01 µM [inhibitor, partial curve, poor fit]
O=C(NCc1ccco1)c1ccc2c(c1)N(Cc1ccc(F)cc1)C(=O)c1ccccc1S2(=O)=O	inconclusive: 14.1 µM [inhibitor, single point]
CCOc1ccccc1Nc1cc(C)nc2ccc(C)cc12	inconclusive: 35.5 µM [inhibitor, single point]
COc1ccc(N(CC(=O)N2CCN(c3ccc(F)cc3)CC2)S(=O)(=O)c2c(C)noc2C)cc1	inactive
CN1\C(=C/C=C/C=C/C=[N+](C)C)C(C)(C)c2ccccc21	inconclusive: 29.1 µM [inhibitor, single point]
CNC(=O)c1ccccc1NC(=O)c1c(O)c2c([nH]c1=O)CCCC2	inconclusive: 0.0891 µM [activator, full curve, poor fit]
O=C(c1ccco1)N1CCN(C(=O)C(Sc2ccccc2)c2ccccc2)CC1 (configuration not stated)	inconclusive: 9.2 µM [inhibitor, partial curve, poor fit]
Cc1cc(C)cc(C(=O)Nc2nc3ccccc3[nH]2)c1	inconclusive: 35.5 µM [inhibitor, single point]
O=C(Cn1nnc2ccccc21)c1ccccc1	inconclusive: 16.4 µM [activator, single point]
COc1ccc(NC(=O)C(=S)N2CCCC2)cc1	inconclusive: 14.1 µM [activator, single point]
O=c1c2cn[nH]c2nc(SCc2c(F)cccc2F)n1-c1ccc(Cl)cc1	inconclusive: 31.6 µM [inhibitor, partial curve, poor fit]
CCCCN(CC)CCCNC(=O)Cn1ncc2c([nH]c3ccc(C)cc32)c1=O	inconclusive: 6.31 µM [activator, full curve]
COc1ccc(CCNC(=O)c2ccc3c(c2)OCCO3)cc1	inconclusive: 1.12 µM [activator, full curve, poor fit]
CCOc1ccc(-n2c(CCc3ccccc3)n[nH]c2=S)cc1	inconclusive: 4.47 µM [inhibitor, partial curve, poor fit]
O=c1c2cc(N3CCOCC3)ccc2[nH]c(=S)n1Cc1cccc(Cl)c1	inconclusive: 5.17 µM [inhibitor, full curve, poor fit]
CCOc1ccc(OCCOCCN2CCOCC2)cc1	inactive
COCCCNC(=S)N1CCCN(c2nc3cc(C)ccc3cc2C#N)CC1	inconclusive: 29.1 µM [inhibitor, single point]
